# Experimental data published in the supplement of paper PMC8728848.
# The other results are listed elsewhere or left out.
# B1: PP2A1 (Arabidopsis thaliana) (protein)
# chain: MFRNQDSKYLIPVQKEAPPVTTLPMKASTVKSPHNCEAILRDADPPISLSSVNLSEQLRSGVFLKPKKQIKYWVDERNSNCFMLFAKNLSITWSDDVNYWTWFTEKESPNENVEAVGLKNVCWLDITGKFDTRNLTPGIVYEVVFKVKLEDPAYGWDTPVNLKLVLPNGKEKPQEKKVSLRELPRYKWVDVRVGEFVPEKSAAGEITFSMYEHAAGVWKKGLSLKGVAIRPKQHHHHHH
# Tests used:
# Experiment in all cases: glycan array binding signal (z-score within array); higher = stronger binding
# Settings in all cases: glycan notation: IUPAC condensed, linker removed
# [1] = target: Man(a1-3)[Man(a1-6)]Man(a1-6)[Man(a1-3)]Man(b1-4)GlcNAc(b1-4)GlcNAc
# How it was run: (§1)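 Glycan array binding is given as a within-array Z-score, which can be read as non-binding when negative. The arrays, 3228 of them, came from the Consortium for Functional Glycomics database and were retained only where the protein sequence was available. Z-scores were averaged across arrays of the same protein sequence at different concentrations or buffers and across linkers.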
# [2] = target: Man(a1-3)[Man(a1-6)]Man(b1-4)GlcNAc(b1-4)GlcNAc
# How it was run: as §1
# [3] = target: Man(a1-6)Man
# How it was run: as §1
# [4] = target: Man(b1-4)GlcNAc
# How it was run: as §1
# [5] = target: Neu5Ac(a2-3)Gal
# How it was run: as §1
# [6] = target: Neu5Ac(a2-3)Gal(b1-3)GalNAc
# How it was run: as §1
# [7] = target: Neu5Ac(a2-3)Gal(b1-3)GalNAc(b1-3)Gal(a1-4)Gal(b1-4)Glc
# How it was run: as §1
# [8] = target: Neu5Ac(a2-3)Gal(b1-3)GalNAc(b1-3)Gal(b1-4)GlcNAc
# How it was run: as §1
# [9] = target: Neu5Ac(a2-3)Gal(b1-3)GalNAc(b1-4)[Neu5Ac(a2-3)]Gal(b1-4)Glc
# How it was run: as §1
# [10] = target: Neu5Ac(a2-3)Gal(b1-3)GalNAc6S
# How it was run: as §1
# [11] = target: Neu5Ac(a2-3)Gal(b1-3)GlcNAc
# How it was run: as §1
# [12] = target: Neu5Ac(a2-3)Gal(b1-3)GlcNAc(b1-3)Gal(b1-3)GlcNAc
# How it was run: as §1
# [13] = target: Neu5Ac(a2-3)Gal(b1-3)GlcNAc6S
# How it was run: as §1
# [14] = target: Neu5Ac(a2-3)Gal(b1-3)[Fuc(a1-4)]GlcNAc
# How it was run: as §1
# [15] = target: Neu5Ac(a2-3)Gal(b1-3)[Fuc(a1-4)]GlcNAc(b1-3)Gal(b1-3)[Fuc(a1-4)]GlcNAc
# How it was run: as §1
# [16] = target: Neu5Ac(a2-3)Gal(b1-3)[Fuc(a1-4)]GlcNAc(b1-3)Gal(b1-4)[Fuc(a1-3)]GlcNAc
# How it was run: as §1
# [17] = target: Neu5Ac(a2-3)Gal(b1-3)[Neu5Ac(a2-3)Gal(b1-4)]GlcNAc
# How it was run: as §1
# [18] = target: Neu5Ac(a2-3)Gal(b1-3)[Neu5Ac(a2-6)]GalNAc
# How it was run: as §1
# [19] = target: Neu5Ac(a2-3)Gal(b1-4)Glc
# How it was run: as §1
# [20] = target: Neu5Ac(a2-3)Gal(b1-4)GlcNAc
# How it was run: as §1
# [21] = target: Neu5Ac(a2-3)Gal(b1-4)GlcNAc(b1-2)Man(a1-3)[GlcNAc(b1-2)Man(b1-4)GlcNAc(b1-2)Man(a1-6)]Man(b1-4)GlcNAc(b1-4)GlcNAc
# How it was run: as §1
# [22] = target: Neu5Ac(a2-3)Gal(b1-4)GlcNAc(b1-2)Man(a1-3)[Neu5Ac(a2-6)Gal(b1-4)GlcNAc(b1-2)Man(a1-6)]Man(b1-4)GlcNAc(b1-4)GlcNAc
# How it was run: as §1
# [23] = target: Neu5Ac(a2-3)Gal(b1-4)GlcNAc(b1-3)Gal(b1-3)GlcNAc
# How it was run: as §1
# [24] = target: Neu5Ac(a2-3)Gal(b1-4)GlcNAc(b1-3)Gal(b1-4)GlcNAc
# How it was run: as §1
# [25] = target: Neu5Ac(a2-3)Gal(b1-4)GlcNAc(b1-3)Gal(b1-4)GlcNAc(b1-3)Gal(b1-4)GlcNAc
# How it was run: as §1
# [26] = target: Neu5Ac(a2-3)Gal(b1-4)GlcNAc(b1-3)Gal(b1-4)[Fuc(a1-3)]GlcNAc
# How it was run: as §1
# [27] = target: Neu5Ac(a2-3)Gal(b1-4)GlcNAc(b1-3)GalNAc
# How it was run: as §1
# [28] = target: Neu5Ac(a2-3)Gal(b1-4)GlcNAc(b1-6)[Gal(b1-3)]GalNAc
# How it was run: as §1
# [29] = target: Neu5Ac(a2-3)Gal(b1-4)GlcNAc(b1-6)[Neu5Ac(a2-3)Gal(b1-3)]GalNAc
# How it was run: as §1
# [30] = target: Neu5Ac(a2-3)Gal(b1-4)GlcNAc6S
# How it was run: as §1
# [31] = target: Neu5Ac(a2-3)Gal(b1-4)[Fuc(a1-3)]GlcNAc
# How it was run: as §1
# [32] = target: Neu5Ac(a2-3)Gal(b1-4)[Fuc(a1-3)]GlcNAc(b1-3)Gal
# How it was run: as §1
# [33] = target: Neu5Ac(a2-3)Gal(b1-4)[Fuc(a1-3)]GlcNAc(b1-3)Gal(b1-4)GlcNAc
# How it was run: as §1
# [34] = target: Neu5Ac(a2-3)Gal(b1-4)[Fuc(a1-3)]GlcNAc(b1-3)Gal(b1-4)[Fuc(a1-3)]GlcNAc(b1-3)Gal(b1-4)[Fuc(a1-3)]GlcNAc
# How it was run: as §1
# [35] = target: Neu5Ac(a2-3)Gal(b1-4)[Fuc(a1-3)]GlcNAc(b1-3)GalNAc
# How it was run: as §1
# [36] = target: Neu5Ac(a2-3)Gal(b1-4)[Fuc(a1-3)]GlcNAc(b1-6)[Gal(b1-3)]GalNAc
# How it was run: as §1
# [37] = target: Neu5Ac(a2-3)Gal(b1-4)[Fuc(a1-3)]GlcNAc(b1-6)[Neu5Ac(a2-3)Gal(b1-3)]GalNAc
# How it was run: as §1
# [38] = target: Neu5Ac(a2-3)Gal(b1-4)[Fuc(a1-3)]GlcNAc6S
# How it was run: as §1
# [39] = target: Neu5Ac(a2-3)Gal6S(b1-4)GlcNAc
# How it was run: as §1
# [40] = target: Neu5Ac(a2-3)Gal6S(b1-4)[Fuc(a1-3)]GlcNAc
# How it was run: as §1
# [41] = target: Neu5Ac(a2-3)GalNAc
# How it was run: as §1
# [42] = target: Neu5Ac(a2-3)GalNAc(b1-4)GlcNAc
# How it was run: as §1
# [43] = target: Neu5Ac(a2-3)[GalNAc(b1-4)]Gal(b1-4)Glc
# How it was run: as §1
# [44] = target: Neu5Ac(a2-3)[GalNAc(b1-4)]Gal(b1-4)GlcNAc
# How it was run: as §1
binder,measurement,setting,value
B1,glycan array binding signal (z-score),[1],3.55
same,glycan array binding signal (z-score),[2],2.85
same,glycan array binding signal (z-score),[3],-0.585
same,glycan array binding signal (z-score),[4],-0.006
same,glycan array binding signal (z-score),[5],-0.354
same,glycan array binding signal (z-score),[6],-0.38
same,glycan array binding signal (z-score),[7],-0.176
same,glycan array binding signal (z-score),[8],-0.417
same,glycan array binding signal (z-score),[9],-0.335
same,glycan array binding signal (z-score),[10],0.425
same,glycan array binding signal (z-score),[11],-0.389
same,glycan array binding signal (z-score),[12],0.141
same,glycan array binding signal (z-score),[13],-0.303
same,glycan array binding signal (z-score),[14],-0.518
same,glycan array binding signal (z-score),[15],0.594
same,glycan array binding signal (z-score),[16],-0.509
same,glycan array binding signal (z-score),[17],-0.638
same,glycan array binding signal (z-score),[18],0.432
same,glycan array binding signal (z-score),[19],-0.203
same,glycan array binding signal (z-score),[20],-0.269
same,glycan array binding signal (z-score),[21],1.11
same,glycan array binding signal (z-score),[22],0.209
same,glycan array binding signal (z-score),[23],-0.113
same,glycan array binding signal (z-score),[24],-0.683
same,glycan array binding signal (z-score),[25],-0.095
same,glycan array binding signal (z-score),[26],0.387
same,glycan array binding signal (z-score),[27],-0.146
same,glycan array binding signal (z-score),[28],0.192
same,glycan array binding signal (z-score),[29],-0.337
same,glycan array binding signal (z-score),[30],0.257
same,glycan array binding signal (z-score),[31],-0.28
same,glycan array binding signal (z-score),[32],-0.14
same,glycan array binding signal (z-score),[33],0.243
same,glycan array binding signal (z-score),[34],-0.402
same,glycan array binding signal (z-score),[35],2.27
same,glycan array binding signal (z-score),[36],-0.268
same,glycan array binding signal (z-score),[37],-0.091
same,glycan array binding signal (z-score),[38],-0.242
same,glycan array binding signal (z-score),[39],0.07
same,glycan array binding signal (z-score),[40],0.241
same,glycan array binding signal (z-score),[41],-0.563
same,glycan array binding signal (z-score),[42],-0.377
same,glycan array binding signal (z-score),[43],-0.143
same,glycan array binding signal (z-score),[44],0.319

# 2 entries from above, tab-delimited.
binder	measurement	setting	value
B1	glycan array binding signal (z-score)	[6]	-0.38
same	glycan array binding signal (z-score)	[7]	-0.176
